Laboratory results as given in PubChem BioAssay AID504834 (National Center for Advancing Translational Sciences (NCATS), 2011).
In all, about 320,000 compounds went through this assay and about 22,000 (6.9%) were called active. Inconclusive means that the source gave no clear call. Such entries were picked first, then a sample of the others. Calls come from the whole dose curve; as a rule, active = well fitted inhibition curve with a large enough effect; inconclusive = small, poorly fitted or top-dose-only effect, or another doubt; inactive = no such curve, though single readings can be large or run the other way. A potency beside an inconclusive call is a rough fit, not a confirmed value.

Assay: Primary qHTS for delayed death inhibitors of the malarial parasite plastid, 96 hour incubation
Conditions: P. falciparum luciferase reporter growth; series mostly up to 28.7 µM; activity change, negative = inhibition: at the top concentration
Method in brief: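 Cell-based qHTS: luciferase-tagged P. falciparum in erythrocytes (2% hematocrit, 0.05% parasitemia final) incubated with compounds for 96 hours, 37 C, 5% CO2; luciferase detection reagent then added and luminescence measured.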
% is set by controls: 0 for no effect and ±100 for the full control effect; potency is the fitted concentration of half-maximal effect.

**Q.** Which Potency does the source give for `COc1ccc(CN(CCC(c2ccc(F)cc2)C2CCOC(C)(C)C2)C(=O)c2ccco2)cc1` (stereo not given) here?
**A.** inconclusive: 18.5 µM [inhibitor, single point]

**Q.** With `COc1ccc(S(=O)(=O)NNC(=O)C2Cc3c(ccc4ccccc34)O2)cc1` (stereo not given) as the compound, how does the “activity change, negative = inhibition” value read?
**A.** inactive: 58.6%

**Q.** Which Potency does the source give for `Cc1ccc2nnn(Cc3cccc(C(C)(C)C)c3O)c2c1` here?
**A.** inconclusive: 18.5 µM [inhibitor, single point]

**Q.** Which Potency does the source give for `CN(C(=O)C1CCCO1)c1nnc(-c2cnccn2)s1` (stereo not given) here?
**A.** active: 3.29 µM

**Q.** For `COc1cccc(CN2CCNC(=O)C2CC(=O)NC2CCCC2)c1OC` (stereo not given), which Potency is on record?
**A.** inconclusive: 20.8 µM [inhibitor, partial curve, poor fit]

**Q.** For `c1ccc(C2C3=C(CCCC3)Nc3ncnn32)cc1` (stereo not given), which Potency is on record?
**A.** inconclusive: 18.5 µM [inhibitor, single point]

**Q.** For `CC(C)(O)C#Cc1ccc(C(=O)N2CCC(CCC(=O)NC3CC3)CC2)cc1`, which Potency is on record?
**A.** inconclusive: 10.4 µM [inhibitor, single point]

**Q.** Which Potency does the source give for `COc1ccc(CN2CCNC(=O)C2CC(=O)NCc2cnn(C)c2)cc1OC` (stereo not given) here?
**A.** inconclusive: 18.5 µM [inhibitor, partial curve, poor fit]

**Q.** For `CC(C)C(CC(=O)N1CCCCC1)C1CCOC(C)(C)C1` (stereo not given), which Potency is on record?
**A.** inconclusive: 18.5 µM [inhibitor, single point]

**Q.** For `Cc1[nH]c(C)c(S(=O)(=O)N2CCCCC2)c1C(=O)N1CCCC1`, which Potency is on record?
**A.** inconclusive: 7.38 µM [inhibitor, partial curve, poor fit]

**Q.** With `O=[N+]([O-])c1ccc(N2CCOCC2)c2cccnc12` as the compound, how does the “activity change, negative = inhibition” value read?
**A.** inactive: 15%

**Q.** For `CCOC(=O)C1CCCN(c2cc(NCCCO)c([N+](=O)[O-])c3nonc23)C1` (stereo not given), which “activity change, negative = inhibition” value is on record?
**A.** inactive: 12.5%

**Q.** For `O=C(CN(Cc1ccccc1)C(=O)c1ccc2c(c1)OCCO2)NCc1ccc2c(c1)OCO2`, which Potency is on record?
**A.** inconclusive: 16.5 µM [inhibitor, single point]

**Q.** With `CC1CCCCC1NC(=O)COc1ccccc1C#N` (stereo not given) as the compound, how does the “activity change, negative = inhibition” value read?
**A.** inactive: -28.8%

**Q.** For `COc1cc(CO)cc(Br)c1OCc1cccnc1`, which “activity change, negative = inhibition” value is on record?
**A.** inactive: 1.35%

**Q.** With `O=C(CCc1ccccc1Cl)Nc1cccc(S(=O)(=O)N2CCCC2)c1` as the compound, how does the Potency read?
**A.** inconclusive: 9.28 µM [inhibitor, partial curve]

**Q.** With `C=CCn1c(SCC(=O)NCCOC)nc2scc(-c3ccco3)c2c1=O` as the compound, how does the Potency read?
**A.** inconclusive: 10.4 µM [inhibitor, single point]

**Q.** With `COC/C=C/C1=CC2=CC(=O)C(C)(OC(=O)c3cnc4ccccc4n3)C(=O)C2=CN1C(CO)CO` (stereo not given) as the compound, how does the “activity change, negative = inhibition” value read?
**A.** inactive: 17.4%

**Q.** With `COc1ccc(NC(=O)Cn2nnc3sc4c(c3c2=O)CC(C)(C)OC4)cc1` as the compound, how does the “activity change, negative = inhibition” value read?
**A.** inactive: 15.8%

**Q.** Which “activity change, negative = inhibition” value does the source give for `C=CCn1c(SCC(=O)NCC2CCCO2)nnc1-c1ccncc1` (stereo not given) here?
**A.** inactive: 8.26%

**Q.** Which Potency does the source give for `C(=N/Nc1cc(N2CCOCC2)nc(N2CCOCC2)n1)/c1ccccc1` here?
**A.** inconclusive: 18.5 µM [inhibitor, single point]

**Q.** Which Potency does the source give for `COc1ccc(Nc2nc(S(=O)(=O)c3ccc(C)cc3)c(Cl)s2)cc1` here?
**A.** inconclusive: 2.94 µM [inhibitor, partial curve, poor fit]

**Q.** With `NS(=O)(=O)c1ccc(O)c(NC(=O)c2ccc([N+](=O)[O-])cc2)c1` as the compound, how does the Potency read?
**A.** inconclusive: 11.7 µM [inhibitor, partial curve]

**Q.** With `COc1ccc(CCNC(=O)Cn2nc(C)c3c(C)n(-c4ccccc4)nc3c2=O)c(OC)c1` as the compound, how does the “activity change, negative = inhibition” value read?
**A.** inactive: -10.8%

**Q.** With `O=Cc1ccc(OCC(=O)Nc2ccccc2-c2ccccc2)cc1` as the compound, how does the Potency read?
**A.** inconclusive: 9.28 µM [inhibitor, partial curve, poor fit]

**Q.** With `CCOn1c(=O)c(-c2ccccc2)[n+]([O-])c2ccccc21` as the compound, how does the “activity change, negative = inhibition” value read?
**A.** inactive: 5.35%

**Q.** Which Potency does the source give for `CCN(CC)CCN(C(=O)/C=C/c1cccs1)c1nc2ccc(Cl)cc2s1` here?
**A.** inconclusive: 10.4 µM [inhibitor, single point]

**Q.** Which “activity change, negative = inhibition” value does the source give for `O=C(/C=C/c1ccc(Cl)cc1Cl)NC(=S)Nc1ccccn1` here?
**A.** inactive: -11.3%

**Q.** With `CNC(=O)CSCc1cnn(-c2ccccc2)c1-n1cccc1` as the compound, how does the Potency read?
**A.** inconclusive: 0.0093 µM [inhibitor, full curve, poor fit]

**Q.** Which “activity change, negative = inhibition” value does the source give for `c1cn(CCCNc2ncnc3sc4c(c23)CCC4)cn1` here?
**A.** inactive: 5.56%

**Q.** Which Potency does the source give for `CCC1CN(C(=O)NCc2ccccc2)c2cc(Cl)ccc2O1` (stereo not given) here?
**A.** inconclusive: 11.7 µM [inhibitor, single point]

**Q.** With `CCOC(=O)NC(Nc1nc2ccccc2s1)(C(=O)OCC)C(F)(F)F` (stereo not given) as the compound, how does the Potency read?
**A.** inconclusive: 18.5 µM [inhibitor, partial curve, poor fit]

**Q.** For `CCOc1ccc(N(CC(=O)NC2CCCC2)C(=O)CSc2nnc(COc3ccccc3)o2)cc1`, which Potency is on record?
**A.** active: 7.38 µM

**Q.** With `Cc1cc(C(=O)CCC(=O)N2CCN(S(=O)(=O)c3ccccc3)CC2)c(C)s1` as the compound, how does the Potency read?
**A.** inconclusive: 18.5 µM [inhibitor, single point]

**Q.** With `CCOC(=O)c1ccc(NC(=O)CSc2ccc(-c3ccccn3)nn2)cc1` as the compound, how does the Potency read?
**A.** inconclusive: 18.5 µM [inhibitor, single point]

**Q.** With `COc1ccccc1CCC(=O)Nc1ccc(S(=O)(=O)Nc2nccs2)cc1` as the compound, how does the “activity change, negative = inhibition” value read?
**A.** inactive: 0.371%

**Q.** Which Potency does the source give for `CCOC(=O)C(NC(=O)NCc1ccccc1OC)(OCC)C(F)(F)F` (stereo not given) here?
**A.** inconclusive: 1.47 µM [inhibitor, full curve, poor fit]

**Q.** For `Cc1ccccc1CS(=O)(=O)Cc1ccc(C(=O)N2CCC3(CC2)OCCO3)o1`, which Potency is on record?
**A.** inconclusive: 18.5 µM [inhibitor, single point]

**Q.** With `CCCOc1ccc(CNC(=O)c2ccc3nc(N4CCOCC4)sc3c2)cc1` as the compound, how does the “activity change, negative = inhibition” value read?
**A.** inactive: 8.17%

**Q.** For `COc1ccc(OC)c(N2CC(O)=C(c3nc4ccccc4s3)C2=N)c1`, which Potency is on record?
**A.** inconclusive: 18.5 µM [inhibitor, single point]

**Q.** For `COc1ccc(C(=O)Nn2c(SCc3ccc([N+](=O)[O-])cc3)nc3ccccc3c2=O)cc1`, which Potency is on record?
**A.** inconclusive: 8.28 µM [inhibitor, partial curve, poor fit]

**Q.** Which Potency does the source give for `COc1ccc(NC(=O)CC2C(=O)N(C)C(=S)N2CCc2ccccc2)cc1` (stereo not given) here?
**A.** inconclusive: 18.5 µM [inhibitor, single point]

**Q.** For `CCn1c(SCC(=O)Nc2ccc(S(N)(=O)=O)cc2)nnc1-c1cccc(OC)c1`, which “activity change, negative = inhibition” value is on record?
**A.** inactive: -17.8%

**Q.** With `CCOc1cccc2cc(C(=O)N3CCOCC3)c(=O)oc12` as the compound, how does the Potency read?
**A.** active: 11.7 µM

**Q.** For `COCCOC(=O)C1=C(C)NC(=O)NC1c1c(Cl)nc2ccccn2c1=O` (stereo not given), which Potency is on record?
**A.** inconclusive: 1.47 µM [inhibitor, partial curve, poor fit]

**Q.** For `Cc1c(CN2CCN(CC(C)C)C(CCO)C2)[nH]c2ccc(Cl)cc12` (stereo not given), which “activity change, negative = inhibition” value is on record?
**A.** inactive: 41.5%

**Q.** For `O=C(Cc1coc2cc3c(cc12)CCC3)OCC(=O)N1CCCC1=O`, which Potency is on record?
**A.** inconclusive: 0.522 µM [inhibitor, full curve, poor fit]

**Q.** For `Cc1ccsc1/C=N/NC(=O)c1ccc2nc[nH]c2c1`, which “activity change, negative = inhibition” value is on record?
**A.** inactive: 41.2%

**Q.** With `CCCCCCCC1CC(/C(C)=N/NC(N)=O)OC1=O` (stereo not given) as the compound, how does the Potency read?
**A.** inconclusive: 3.29 µM [inhibitor, partial curve, poor fit]

**Q.** With `COc1cc(C(=O)/C=C/c2cccnc2)ccc1O` as the compound, how does the “activity change, negative = inhibition” value read?
**A.** inactive: 0%

**Q.** Which Potency does the source give for `CC1CN(S(=O)(=O)c2cccc(C(=O)Nc3ccccc3N3CCCCC3)c2)CC(C)O1` (stereo not given) here?
**A.** inconclusive: 11.7 µM [inhibitor, partial curve]

**Q.** Which “activity change, negative = inhibition” value does the source give for `Cc1ccc(C(=O)N/N=C/c2ccc(N3CCOCC3)cc2)c(C)c1` here?
**A.** inactive: 1.03%

**Q.** For `Cc1sc2nc(CN3CCOCC3)nc(N3CCN(S(=O)(=O)c4ccccc4)CC3)c2c1C`, which Potency is on record?
**A.** inconclusive: 13.1 µM [inhibitor, partial curve, poor fit]

**Q.** For `COc1cccc(-c2cc(C(=O)NCc3cccs3)no2)c1`, which Potency is on record?
**A.** inconclusive: 1.04 µM [inhibitor, partial curve, poor fit]

**Q.** With `COCC(=O)N(C)c1nnc(-c2ccccn2)s1` as the compound, how does the activity change, negative = inhibition read?
**A.** inactive: 6.78% [at 5.75 µM]

**Q.** For `NC(=O)[C@@H]1CCCNc2c(I)cc([N+](=O)[O-])cc2C(=O)N[C@@H](Cc2ccccc2)C(=O)N[C@@H](Cc2cnc[nH]2)C(=O)N1`, which Potency is on record?
**A.** inconclusive: 18.5 µM [inhibitor, single point]

**Q.** For `Cc1ccc(-c2cc(-c3ccc(C)cc3)[n+](-c3ccc(C(=O)[O-])cc3)c(-c3ccc(C)cc3)c2)cc1`, which Potency is on record?
**A.** inconclusive: 13.1 µM [inhibitor, partial curve, poor fit]

**Q.** For `CN1CCN(/N=C/c2ccc(Br)cc2)CC1`, which “activity change, negative = inhibition” value is on record?
**A.** inactive: 91.8%

**Q.** For `COC(=O)C1CN(C(=O)COc2ccccc2)c2ccccc2O1` (stereo not given), which Potency is on record?
**A.** inconclusive: 9.28 µM [inhibitor, single point]

**Q.** With `O=C(CCCn1c(=O)[nH]c2ccccc2c1=O)NCCSCc1ccccc1` as the compound, how does the “activity change, negative = inhibition” value read?
**A.** inactive: -6.93%

**Q.** Which Potency does the source give for `Cc1nn(C(C)C(=O)N2CCc3ccccc32)c(C)c1[N+](=O)[O-]` (stereo not given) here?
**A.** active: 5.22 µM

**Q.** With `CCSc1ncc(Cl)c(C(=O)Nc2ccc(S(=O)(=O)Nc3ncccn3)cc2)n1` as the compound, how does the Potency read?
**A.** inconclusive: 10.4 µM [inhibitor, partial curve]

**Q.** With `NC(=O)CN1CCOCCOCCN(CC(N)=O)CCOCCOCC1` as the compound, how does the Potency read?
**A.** inconclusive: 18.5 µM [inhibitor, single point]

**Q.** With `COc1cc2[nH]c(=S)nc(NCc3cccnc3)c2cc1OC` as the compound, how does the “activity change, negative = inhibition” value read?
**A.** inactive: 96.7%

**Q.** Which Potency does the source give for `COc1ccc(CNC(=O)COc2cc3c(c4oc(=O)cc(C)c24)CCC(C)(C)O3)cc1OC` here?
**A.** active: 7.38 µM

**Q.** With `CN(Cc1ccccc1)c1nc(N)c([N+](=O)[O-])c(NCc2ccccc2)n1` as the compound, how does the Potency read?
**A.** inconclusive: 11.7 µM [inhibitor, single point]

**Q.** With `CCN(CC)S(=O)(=O)c1ccc(C(=O)NCc2n[nH]c(=S)n2Cc2ccccc2)cc1` as the compound, how does the Potency read?
**A.** inconclusive: 18.5 µM [inhibitor, single point]

**Q.** For `CCOC(=O)C1CCCN(C(=O)CN2C(=O)NC(C)(c3ccc4ccccc4c3)C2=O)C1` (stereo not given), which “activity change, negative = inhibition” value is on record?
**A.** inactive: 6.91%

**Q.** Which Potency does the source give for `CCC(=O)NC(c1cccs1)c1cc(Cl)c2ccccc2c1O` (stereo not given) here?
**A.** inconclusive: 4.15 µM [inhibitor, single point]

**Q.** For `O=C(OCc1ccccc1F)c1cc2ccccc2cc1O`, which “activity change, negative = inhibition” value is on record?
**A.** inactive: -14.6%
